In publication doi:10.1101/268466:
Results are given in words; binding and its absence hold for the method and conditions named. In cells and extracts the contact can be indirect. Some results given as binding are weak or reduced against the parent protein; the word gives no strength.

By UniProt entry, the sequences of proteins in these tests, tags left out.
UniProt Q9S823: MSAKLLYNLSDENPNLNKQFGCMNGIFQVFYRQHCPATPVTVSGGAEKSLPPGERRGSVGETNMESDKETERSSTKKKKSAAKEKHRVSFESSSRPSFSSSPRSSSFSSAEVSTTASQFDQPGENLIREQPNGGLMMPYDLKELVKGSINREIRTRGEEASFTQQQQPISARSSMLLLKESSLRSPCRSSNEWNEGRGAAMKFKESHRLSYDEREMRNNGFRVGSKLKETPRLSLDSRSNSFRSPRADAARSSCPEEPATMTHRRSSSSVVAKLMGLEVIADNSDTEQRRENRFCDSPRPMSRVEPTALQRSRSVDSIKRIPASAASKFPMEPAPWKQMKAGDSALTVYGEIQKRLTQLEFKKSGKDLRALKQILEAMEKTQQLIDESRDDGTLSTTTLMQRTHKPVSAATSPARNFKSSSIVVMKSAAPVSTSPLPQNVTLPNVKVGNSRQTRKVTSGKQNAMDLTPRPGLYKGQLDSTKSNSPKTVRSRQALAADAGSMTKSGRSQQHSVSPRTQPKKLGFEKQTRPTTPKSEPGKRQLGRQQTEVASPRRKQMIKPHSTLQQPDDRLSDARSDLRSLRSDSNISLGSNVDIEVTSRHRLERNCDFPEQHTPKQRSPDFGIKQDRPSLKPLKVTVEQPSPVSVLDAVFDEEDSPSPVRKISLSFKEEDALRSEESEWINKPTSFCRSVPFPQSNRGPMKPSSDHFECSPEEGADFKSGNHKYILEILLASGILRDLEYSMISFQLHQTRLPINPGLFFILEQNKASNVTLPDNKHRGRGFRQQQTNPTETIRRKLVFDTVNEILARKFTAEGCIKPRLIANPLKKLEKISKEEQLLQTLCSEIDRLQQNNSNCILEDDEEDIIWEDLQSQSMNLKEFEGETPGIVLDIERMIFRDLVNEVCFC
UniProt F4J061: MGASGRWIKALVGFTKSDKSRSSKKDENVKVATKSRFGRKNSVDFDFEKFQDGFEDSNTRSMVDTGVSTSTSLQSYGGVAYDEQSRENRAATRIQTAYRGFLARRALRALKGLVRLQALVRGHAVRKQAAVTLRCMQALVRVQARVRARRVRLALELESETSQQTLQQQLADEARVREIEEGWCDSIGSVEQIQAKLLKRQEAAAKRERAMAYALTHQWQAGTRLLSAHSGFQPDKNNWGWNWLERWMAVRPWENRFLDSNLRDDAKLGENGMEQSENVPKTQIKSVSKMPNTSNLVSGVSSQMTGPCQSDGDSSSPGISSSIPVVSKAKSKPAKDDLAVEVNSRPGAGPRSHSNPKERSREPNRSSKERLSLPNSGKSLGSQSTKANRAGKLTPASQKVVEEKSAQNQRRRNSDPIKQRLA

Experiments:
[1] = molecular target: YC-CaM2 (CaM2 fused N-terminally to the C-terminal half of YFP) (UniProt P0DH97); experiment: split reporter
[2] = molecular target: YC-TRM1 (TON1 RECRUITMENT MOTIF1 fused to the C-terminal half of YFP) (UniProt Q9S823); experiment: split reporter

Substance | binding [1] | binding [2]
YN-TRM1 (TON1 RECRUITMENT MOTIF1 fused to the N-terminal half of YFP) (from UniProt Q9S823 1-905) | no binding | 
YN-IQD5 (IQD5 fused N-terminally to the N-terminal half of YFP) (from UniProt F4J061 1-422) | binds | no binding
